Source: article PMC10685657
No constants are given. Whether binding was seen depends on the method and setting. In cells and extracts the contact can be indirect. Some entries that bind do so weakly or less than the wild type.

Sequences of proteins named here, by UniProt entry; tags and fusion partners are left off. A change or cut given only in a name is not applied to a line headed by its entry. A line that says so, or that is headed by a name, gives the form on record, which may keep a tag or linker. Residues count along the entry.
UniProt Q15910: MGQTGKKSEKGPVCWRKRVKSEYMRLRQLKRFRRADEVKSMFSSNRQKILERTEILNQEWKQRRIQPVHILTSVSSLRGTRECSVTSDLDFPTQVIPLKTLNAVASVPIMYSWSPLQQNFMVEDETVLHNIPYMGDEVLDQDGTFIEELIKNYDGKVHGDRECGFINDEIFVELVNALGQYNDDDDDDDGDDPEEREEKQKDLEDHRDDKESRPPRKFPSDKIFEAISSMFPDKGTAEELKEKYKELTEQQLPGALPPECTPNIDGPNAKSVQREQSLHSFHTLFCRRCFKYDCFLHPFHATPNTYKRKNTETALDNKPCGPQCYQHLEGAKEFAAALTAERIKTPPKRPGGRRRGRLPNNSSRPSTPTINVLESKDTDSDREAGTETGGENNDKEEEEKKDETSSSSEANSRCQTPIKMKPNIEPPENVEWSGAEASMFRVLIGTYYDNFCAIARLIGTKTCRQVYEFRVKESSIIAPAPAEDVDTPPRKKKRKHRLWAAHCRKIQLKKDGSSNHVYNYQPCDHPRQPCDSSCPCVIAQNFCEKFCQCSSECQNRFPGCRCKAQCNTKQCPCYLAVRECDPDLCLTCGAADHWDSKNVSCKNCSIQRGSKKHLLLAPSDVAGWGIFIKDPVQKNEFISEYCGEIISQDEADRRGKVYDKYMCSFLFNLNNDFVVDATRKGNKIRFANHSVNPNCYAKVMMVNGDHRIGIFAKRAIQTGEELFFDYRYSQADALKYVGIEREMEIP
UniProt Q15022: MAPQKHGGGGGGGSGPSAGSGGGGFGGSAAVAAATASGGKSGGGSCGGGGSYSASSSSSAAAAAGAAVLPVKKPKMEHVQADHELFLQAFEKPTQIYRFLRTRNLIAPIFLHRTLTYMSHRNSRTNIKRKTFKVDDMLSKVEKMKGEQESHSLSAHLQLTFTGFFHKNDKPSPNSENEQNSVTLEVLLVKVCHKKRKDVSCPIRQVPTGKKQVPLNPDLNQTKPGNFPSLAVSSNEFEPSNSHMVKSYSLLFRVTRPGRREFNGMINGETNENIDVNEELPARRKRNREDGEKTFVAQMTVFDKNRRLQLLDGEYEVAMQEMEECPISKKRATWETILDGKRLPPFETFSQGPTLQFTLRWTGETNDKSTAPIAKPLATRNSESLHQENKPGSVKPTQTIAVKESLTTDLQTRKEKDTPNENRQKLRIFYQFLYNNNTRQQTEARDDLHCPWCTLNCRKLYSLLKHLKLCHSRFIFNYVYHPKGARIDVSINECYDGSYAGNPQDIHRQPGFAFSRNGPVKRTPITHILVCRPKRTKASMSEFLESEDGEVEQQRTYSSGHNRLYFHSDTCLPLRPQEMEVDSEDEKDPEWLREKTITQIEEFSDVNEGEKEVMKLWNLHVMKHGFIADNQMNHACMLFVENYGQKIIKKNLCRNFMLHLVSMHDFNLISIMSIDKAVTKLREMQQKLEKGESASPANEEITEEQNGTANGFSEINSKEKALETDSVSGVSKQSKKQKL
TRIP12 (human (endogenous in YT, NK92)) (Q14669, form named): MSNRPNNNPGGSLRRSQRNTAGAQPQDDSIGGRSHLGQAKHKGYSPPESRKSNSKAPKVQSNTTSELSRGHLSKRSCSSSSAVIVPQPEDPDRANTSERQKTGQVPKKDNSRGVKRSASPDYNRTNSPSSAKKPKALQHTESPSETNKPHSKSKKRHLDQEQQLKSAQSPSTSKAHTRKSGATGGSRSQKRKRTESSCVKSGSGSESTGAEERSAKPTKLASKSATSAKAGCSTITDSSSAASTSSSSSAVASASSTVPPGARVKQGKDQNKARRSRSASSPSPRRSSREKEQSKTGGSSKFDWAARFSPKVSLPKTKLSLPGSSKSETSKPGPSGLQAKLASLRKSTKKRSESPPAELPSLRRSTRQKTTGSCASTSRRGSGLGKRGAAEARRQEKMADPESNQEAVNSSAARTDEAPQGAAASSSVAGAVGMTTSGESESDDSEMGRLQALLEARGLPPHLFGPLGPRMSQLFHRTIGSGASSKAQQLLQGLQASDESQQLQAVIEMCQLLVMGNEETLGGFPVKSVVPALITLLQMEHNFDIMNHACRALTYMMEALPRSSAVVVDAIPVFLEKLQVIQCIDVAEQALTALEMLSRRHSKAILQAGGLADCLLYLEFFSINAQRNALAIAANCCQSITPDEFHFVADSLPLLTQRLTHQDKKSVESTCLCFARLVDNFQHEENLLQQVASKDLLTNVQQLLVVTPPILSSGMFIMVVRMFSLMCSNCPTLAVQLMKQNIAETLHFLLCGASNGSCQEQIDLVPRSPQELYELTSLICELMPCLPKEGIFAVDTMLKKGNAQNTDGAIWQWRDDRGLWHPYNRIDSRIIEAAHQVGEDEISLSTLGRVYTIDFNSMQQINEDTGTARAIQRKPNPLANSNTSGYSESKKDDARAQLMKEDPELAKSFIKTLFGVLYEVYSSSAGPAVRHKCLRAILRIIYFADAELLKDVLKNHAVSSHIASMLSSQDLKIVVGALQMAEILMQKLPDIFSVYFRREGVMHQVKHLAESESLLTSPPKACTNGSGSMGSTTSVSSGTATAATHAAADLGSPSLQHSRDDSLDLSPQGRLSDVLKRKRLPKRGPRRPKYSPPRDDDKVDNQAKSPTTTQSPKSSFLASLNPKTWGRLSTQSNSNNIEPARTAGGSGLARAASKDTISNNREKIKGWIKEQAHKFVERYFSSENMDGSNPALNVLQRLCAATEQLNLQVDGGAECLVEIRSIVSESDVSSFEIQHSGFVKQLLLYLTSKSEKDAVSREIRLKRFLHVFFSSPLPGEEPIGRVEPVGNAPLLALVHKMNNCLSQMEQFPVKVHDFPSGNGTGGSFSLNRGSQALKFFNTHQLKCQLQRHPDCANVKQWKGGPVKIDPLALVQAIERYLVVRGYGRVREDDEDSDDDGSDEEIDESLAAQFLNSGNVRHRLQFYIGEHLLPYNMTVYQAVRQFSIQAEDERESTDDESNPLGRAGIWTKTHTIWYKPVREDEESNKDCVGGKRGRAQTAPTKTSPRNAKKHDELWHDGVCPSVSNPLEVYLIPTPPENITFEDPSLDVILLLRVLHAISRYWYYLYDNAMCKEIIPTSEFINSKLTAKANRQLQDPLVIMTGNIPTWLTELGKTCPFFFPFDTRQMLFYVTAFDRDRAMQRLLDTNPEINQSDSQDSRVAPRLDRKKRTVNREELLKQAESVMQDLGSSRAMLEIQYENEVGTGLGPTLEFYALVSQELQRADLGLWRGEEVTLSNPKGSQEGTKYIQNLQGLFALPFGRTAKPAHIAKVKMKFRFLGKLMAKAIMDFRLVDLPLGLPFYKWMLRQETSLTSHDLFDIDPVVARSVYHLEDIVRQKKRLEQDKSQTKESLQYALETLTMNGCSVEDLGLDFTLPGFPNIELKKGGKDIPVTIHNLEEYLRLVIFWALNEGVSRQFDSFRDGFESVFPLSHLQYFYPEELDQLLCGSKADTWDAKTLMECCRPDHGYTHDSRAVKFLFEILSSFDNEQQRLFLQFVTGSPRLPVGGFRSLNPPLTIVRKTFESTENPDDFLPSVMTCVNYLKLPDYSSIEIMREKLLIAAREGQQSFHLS
UniProt P10809, residues 27-573: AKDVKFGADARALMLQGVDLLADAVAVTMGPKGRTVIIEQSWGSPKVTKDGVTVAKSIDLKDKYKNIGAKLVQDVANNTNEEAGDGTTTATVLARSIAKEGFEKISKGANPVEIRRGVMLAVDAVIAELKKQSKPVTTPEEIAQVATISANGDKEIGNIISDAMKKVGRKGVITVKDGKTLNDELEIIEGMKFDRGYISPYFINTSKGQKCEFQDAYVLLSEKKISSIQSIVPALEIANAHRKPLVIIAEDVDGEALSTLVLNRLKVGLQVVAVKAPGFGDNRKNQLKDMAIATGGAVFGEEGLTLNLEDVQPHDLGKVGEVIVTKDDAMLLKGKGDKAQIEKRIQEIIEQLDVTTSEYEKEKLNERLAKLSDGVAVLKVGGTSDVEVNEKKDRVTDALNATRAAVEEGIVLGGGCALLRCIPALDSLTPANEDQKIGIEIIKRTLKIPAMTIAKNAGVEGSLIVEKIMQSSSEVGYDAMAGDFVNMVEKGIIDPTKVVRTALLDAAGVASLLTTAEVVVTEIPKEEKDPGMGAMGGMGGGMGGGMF

What was measured:
[1] = target: EZH2 (human (endogenous in YT, NK92, NKYS)) (UniProt Q15910); test: co-IP; endogenous proteins in ENKTL cell lines (YT, NK92, NKYS); RIPA lysis with PMSF, sonication; antibody overnight at 4 °C, protein A/G beads 1 h at 4 °C; immunoblot
[2] = target: SUZ12 (human (endogenous in YT, NKYS, HEK293T)) (UniProt Q15022); test: as above
[3] = target: TRIP12 (human (endogenous in YT, NK92)) (UniProt Q14669); test: as above
GFP-EZH2 K634R = GFP-EZH2 K634R (UniProt Q15910); test: co-IP; HEK293T cells harvested 48 h after transfection (EZH2 or its mutants; with or without TRIP12 overexpression); RIPA lysis with PMSF, sonication; antibody overnight at 4 °C, protein A/G beads; immunoblot
GFP-EZH2 T487A = GFP-EZH2 T487A (UniProt Q15910); test: as above
GFP-EZH2 wildtype = GFP-EZH2 wildtype (UniProt Q15910); test: as above

Measured: binding

HSP60 (from UniProt P10809 27-573)
binds: [1] | [2] | [3]

HSP60 (in HEK293T cells) (from UniProt P10809 27-573)
binds: GFP-EZH2 K634R | GFP-EZH2 T487A | GFP-EZH2 wildtype
